Results are given in words; binding and its absence hold for the method and conditions named. Binding seen in cells or lysates may run through a third protein. A yes stands for co-enrichment or nearness to the bait. Other partners may have been found. One block for each binder: values may come before it.
Key:
[1] = target: T1, Cdc3-mCherry (C. neoformans) (UniProt J9VUF2); test: affinity purification with mass spectrometry; mCherry-tagged septin captured from C. neoformans lysate on RFP-Trap agarose, 4 h at 4°C, washed with TBS with 2 M urea pH 7.5; GeLC-MS/MS; untagged H99 as negative control; hits logFC >2 and adjusted p <0.001 (text-named hits <0.05); exponential cultures at ~25°C or shifted to 37°C for 2 h; N = 5
T1 sequence: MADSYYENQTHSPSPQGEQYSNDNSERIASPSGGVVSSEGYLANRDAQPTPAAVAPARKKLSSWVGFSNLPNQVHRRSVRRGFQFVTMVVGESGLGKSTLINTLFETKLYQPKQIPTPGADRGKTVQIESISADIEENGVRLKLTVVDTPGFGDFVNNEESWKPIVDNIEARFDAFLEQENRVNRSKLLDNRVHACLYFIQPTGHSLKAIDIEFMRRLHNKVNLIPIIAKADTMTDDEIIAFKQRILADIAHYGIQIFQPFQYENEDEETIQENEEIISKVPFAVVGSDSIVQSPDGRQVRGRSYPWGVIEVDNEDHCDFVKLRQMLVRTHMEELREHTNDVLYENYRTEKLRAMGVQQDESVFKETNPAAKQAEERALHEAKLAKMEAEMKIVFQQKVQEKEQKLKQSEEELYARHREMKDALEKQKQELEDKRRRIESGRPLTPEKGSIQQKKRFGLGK

[2] = target: T2, Cdc10-mCherry (C. neoformans) (UniProt J9VMT9); test: as above
T2 sequence: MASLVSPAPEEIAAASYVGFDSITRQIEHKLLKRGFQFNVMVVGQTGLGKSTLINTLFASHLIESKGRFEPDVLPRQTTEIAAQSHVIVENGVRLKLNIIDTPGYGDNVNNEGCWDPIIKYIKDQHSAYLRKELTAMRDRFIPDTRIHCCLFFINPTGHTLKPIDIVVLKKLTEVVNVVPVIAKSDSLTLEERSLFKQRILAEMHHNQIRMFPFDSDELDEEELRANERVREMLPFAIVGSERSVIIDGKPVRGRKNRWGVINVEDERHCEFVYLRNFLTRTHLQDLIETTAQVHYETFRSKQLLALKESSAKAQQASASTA

- binding [1]: binds
- binding [2]: binds
B1: Splicing factor 3B subunit 2 (protein, UniProt J9VQG8 1-597)
chain: MPTPSTTTNGTGPHTTVTAPIKSSAAKSRGALKRLKAKARGGGGGGKGSSRMSETPTDTESEAESTTSTVDLSTLEIDPSDPRFTVFSNIFAHFQGGEGAEIPEQFTGPAKGEVYYSDEEDDDQEAKENAVKRAQEQEGLTRRQRRQAAKLTVAELKQLVDRPEVVDWYDCDARDPRLLVNLKSHRNTVPVPSHWNAKRDYLAGKRGIEKPPYLLPSWIAETGIGEQRDAVKAKEAEQSLRQKTRERVQPKMGKIDIDYQKLHDAFFKYQGKPSMSKFGEAYYEGKELETDLRTKKPGELSQELIEALSIPPLAPPPWLIAMQRFGPPPSYPNLRIRGLNAPIPPGAQWGFHPGGWGKPPMDDFNRPLYGDVFGVLQGAEIAHQNEVDRSLWGEIEHVEEESEEESEEEEEEEEEEEAEKPAANVPADGLETPSGLATPSGYHSVVSTVPGGLETPDFMDLRKNTKAQAEDVPSGPKELYQVIPERETTSRGLMGSSTAYDIGAVGKGSGLAVLGGEDSGRKRKAGDVDISVDTDEELTQEQLRAKYEASRAQQNRVYVPGADADRSGFEDVMSGEMKKRARKDDKRGKEKAEKFKF

- binding [1]: binds
- binding [2]: binds
B2: Septin ring protein CDC12 (protein, UniProt J9VU34 1-380)
chain: MSDGIGIANLPNQRHKITSQRGAHFTIMVVGQSGLGKTTLINTLFATEICSPRNYRQRFAKQLDKTTEVEILKADLEERGFNIKLTVIDTPGFGDYVNNRDSWGPIVDFIDDQHESYMRQEQQPFRKEKQDLRIHACLYFIKPTGTTLKPLDVEIMKKLGTRVNLIPVIAKADTMTPEDLHNFKTIVRETVIAQNIAVYTPPVDLDDEAAAEHARAMQAVMPFSIIGSTQDVTTPDGRVVKGREYLWGVAEVENEDHCDFKKLRSLLIRTYMLDLITSTEEKHYEAYRLAQMETRKFGEPKVKKLDNPKYREEEETLRKRFTEQVKLEEARFRQWEQHLIAERDRLNKDLEQAHSAIKALEAELDQVAAYHRQGGTVGRR

- binding [1]: binds
- binding [2]: binds
B3: DNA replication licensing factor MCM2 (protein, UniProt J9VT26 1-932)
chain: MPSPSVPPSSQQRPKRPRSRSRSPTAGPSGLRSSPPPSSLPPSSLPPSSPPIPFSDFGDEQDVADDEAEVRRIGRENGDDDEDEEGEDLFNDDMMADYEENAGLDTYSQADLDDRSSVAGPTRAERLAAERAMDLRDRGVSGRRAGRRDHMPAFLQSDDDEAEAFGDDPLAGINVRRRRRQYDERMDEDDVEEDDEEMSLEHLGDVKAASIAEWVSRDAVRRAISKHFKSFLMTYVDAQGNSVYGQRIKHLGEVNSESLEVSYIHLANTRPILAYFLANSPQPMLELFDQVALDAILLYYPSYDRIHSEIHVRITELPTSLSLRDLRQSNLNCLVRVSGVVTRRSGVFPQLKYVKFDCQKCGATLGPFYQDTNKELKISFCQGCESRGPFVVNSEQTVYRNYQKMTLQESPGSVPAGRLPRHREVILLWDLIDMAKPGEEVEITGIYRNNFDASLNTKNGFPVFSTVLEANHINKKEDLFAAVRLTEEDEKMIRTMARDDRIAKRIVKSIAPSIYGHDDIKTAIALSLFGGVGKDINRKHRIRGDINVLLLGDPGTAKSQFLKYVEKTANRAVFTTGQGASAVGLTASVRKDPITKEWTLEGGALVLADKGHCLIDEFDKMNDADRTSIHEAMEQQSISISKAGIITTLQARCAIIAAANPIRGRYNPTIPFQQNVELTEPILSRFDVLCVVKDAADPVQDEMLAQFVVGSHLRSHPLFDKEYEEANVSTVVDADIIPQDVLRKYIMYAKEHFRPQLHQLDQDKLARLYADLRRESLATGSFPITVRHLESMIRMAEASAKMHLREYVRTDDIDLAIQVAVGSFVNAQKMSIKKTLERGFRKYVHQATDHEELLSFLLGGIVKEKVQLYRHSHGENPTRVFVKVSQLEGRAKELEIYDVQPFLRSRLFSTNGYKVVDHDGARNIEKTFTVGA

- binding [1]: binds
- binding [2]: binds
B4: RNA polymerase-associated protein LEO1 (protein, UniProt J9VTL1 1-468)
chain: MSDSESAADLFGDEEGSRRNSPAPQKSPSPQLSHKSDDEEQDVGDLFGDDAEEDEVQIGRRSTGTSASGSRSPHPLEYVEEDEAVPQRQNVVTLPIPQWPHMTATDGKVWQMKFPAYVNLDPKPFDPDLYRATQEEEPIDGATDPIAAKSMMIGVKNTIRWRWVTGPDGEPVRQSNARMLRWSDGSVTLQLGDDFYDVAPSQGATLARPSDPKPAPKRDDRPATNSSTTFLCVGAAAERVLVTERPIAGQLSLLPTSMTSKTYLELVKHVGQQHTKHSKMKMLEETQDEEALQALLLKSAPNREAIKGAKSTVRRTSSKTGLGKGKKTRKIGYSDSESDVGFSADERRPRRKPERESIEYDDDDGFIVSDSDEDDYPSKKKKGKGKNKKRKGFTDDEESLDEMEEAERRIEERERERKRARKDKGGPSKKSREYVDTEDEEDGKEAGDDDAEGEEEMDMDMDVESEED

- binding [1]: binds
- binding [2]: binds
B5: Importin N-terminal domain-containing protein (protein, UniProt J9VJ34 1-1050)
chain: MDQQVLQCLQSTLSPEENVRKHAEEQLKQLFAVPEGGLSLARLLNAQEVSLFQRQSAGVLLQQYVNQHWTPASAQFQHPITPIEVKAQIRPLVFGGLSDPERKIRLASAFSLSAIARYDWPDDYPDLLPQLVNLLTSGSSDSVHGGMRVISDFVRNELSEDQLLPVVQDLLPAVLNILANPQAHSPSTRASTVHVFRQVVRMLETVREEQPRAVKSALESLGAVWLDAFSQLLSQDAGAEVQQNWESLSIRIEIFRTLSLFQSAFPRIIAPNVPSFIRLAILNLQSLLPLFTAFYLSTNDDAPEPPSPTSDSGAGMTDPKIDITDLASAIFDYLTPTVRTKGAAGVLVEGQDESARATEVLENLVRVVQEFTQITRENAEEWMEDTNAFVIDEDEETEEYSARTSGYDLIGSVMDKWTRPVGAILQNLTNTRVQESASAKQSGSPDWWKPLESVLAMLGGISDDIRNALEEDLGKKRSPTIDVSYLFDQVIPGLLGQSEAPFLQGRAFVFASQFSSFLPQTLVTQYLNAAVSALESPEVSVPVKISAVKTIKNFCRHVDTAILQPQTGKVLSLLLPLLSQAERETLYLLLETIRAITSIDDSILSTQNTGAVVEQMFDVWLRCADDPVATSIIEENIESLTLFPDPGVLTALVHTLAPKLAAAISTPVTDETVHIPGEAVQLANSMIRMRGGPLETELVATITMAVMEILRTTDDMDVIQHGMIHLTLVVRKDCQKLLRWQDVEGNNGIASIFGLLGRFLAPTFSESGGIFVGELIMHLFRKAGEAIGPVLPDLLRAVVTRLATATMPSFTQTLVLPFAYLFSTEHTANTINLLSQFSIPVPPGGEKRALDLVLSAWCDTSDTITGSWNIRVSDMGMSKLFVLSDQRLREVIVKGDLIISEANRNTIMTRSRTRQTPNQYTQIPFPLKALKLILKDVQSEPTSAKKTTSGLDIEDDDGDEEWDDDDLLGGGFNVGEFDYLSSWLDNNGAESDAQDDDEDLKSDPLAQIDLGQYLTDVLRHAYASNSNGMHEMVEGLSDEEKGILRGVLTL

- binding [1]: binds
- binding [2]: binds
B6: Short-chain dehydrogenase (protein, UniProt J9VI22 1-292)
chain: MPAARLRLEHKVAIITGAGSGIGLETALQFAAEGARLVISDINLPNVEAAAQLINAHFPECDAVAIKCDVGKEEEVKAMVDKAVEVFGRLDVLFNNAGIMHPDDDNAITTEEKIWDLTQNINVKGVWFGCKYGILAMKKNKPDPSKGLGIGGSIINVASFVAIMGAATPQLAYTASKGAVLAMTRELAMVHAREGIRFNSLCPGPIRTPLLMDFLNTPEKLNRRMVHVPMGRFGEAVEQAKAVVFLASDDSSFINGTDFLVDGGLHKCYVTPEGEPALPGPTGLLATLSKTA

— paper PMC11651612
